Experimental data taken from publication PMC10061512 (ACS Omega, 2023).

Legend:
[1] = PAMPA
in vitro = details: pig, PAMPA, pH 7.4

With `COc1cc2c(cc1OC)C(=O)C(CC1CCN(Cc3ccccc3)CC1)C2` (centres unmarked) [donepezil, reference compound] as the molecule, how does the “prediction of CNS permeation” value [1] read?
The value was “CNS+”.

And the Papp (in vitro)?
Its Papp is 13.3 ± 1.82 ×10⁻⁶ cm/s.
